# Reference: PubChem BioAssay AID1259415 (National Center for Advancing Translational Sciences (NCATS), 2018)
# Where “and” joins values, the source holds several entries; their conditions need not be identical. Identical values can stand only once. Among all 410,000 compounds or so, about 18,000 (4.4%) were called active. Inconclusive means that the source gave no clear call. Such entries were picked first, then a sample of the others. Cut-off read from the data, not from the text of the source: active = activity change below about -60%; inconclusive = no clear call, values can overlap the other calls; inactive = above about -39%.
# Assay: qHTS Assay for inhibitors of the human cytomegalovirus (HCMV)
# Conditions: HFF cells, HCMV-luciferase reporter, 72 h; at 57.5 µM; stronger effect = lower value
# Description: NCGC Assay Overview: Infection with human cytomegalovirus (HCMV) continues to pose significant threats for pregnant women and immunocompromised hosts. HCMV causes serious morbidity and mortality in transplant recipients, and congenital HCMV is the leading infectious cause of mental retardation and deafness in children. In the 1990s, the annual costs associated with the disease burden of congenital CMV were estimated at around $2 billion. A HCMV vaccine is not available yet and HCMV therapies result in intolerable side effects and emergence of drug resistant viruses. […] Towards this goal we have developed and characterized a luciferase HCMV reporter that was initially used in 96 well plates and then optimized to 1536-well plates for utilization in screening of the MLSMR collection, the NGCG diversity collection and the NCGC Pharmaceutical Collection of approved and investigational drugs.
# NCGC Assay Protocol Summary:
# This is a cell-based assay for HCMV inhibition in HFFs cells. The screening used 2 compound doses and the HCMV-luciferase at MOI of 1 PFU/cell. Cells were treated and infected with HCMV. At 72 h post infection cell lysates were collected and luciferase activity was determined using the Glomax-Multi + Detection System (Promega, Madison, WI). Data were normalized to the controls for basal activity (buffer only) and known HCMV inhibitors Salinmoycin.
# 1536-well assay protocol for the assay:
# (1) Add 3 ul CMV/HFF cell culture. 1000 cells/well in DMEM nirmal media.
# (2) Incubate 16 hr at 37C.
# (3) Add 23 nl control compound, 10uM of Salinomycin.
# (4) Add 23 nl compounds in DMSO solution.
# (5) Add 3 ul CMV suspension. Final 1 puf/ul, Virus stock 2000pfu/ul
# (6) Incubate 72 hrs at 37C.
# (7) Add 4 ul OneGlo Luc Reagent.
# (8) Incubate 5 min at room temperature.
# % is set by controls: 0 for no effect and ±100 for the full control effect.
row,SMILES,"activity change, negative = inhibition"
1,N/C(=N\OC(=O)N1c2ccccc2Sc2ccccc21)c1ccc(Br)cc1,active: -63.7%
2,COc1ccc(N(CC(=O)NCCc2ccc(Cl)cc2)S(=O)(=O)c2c(C)[nH]c(=O)[nH]c2=O)cc1,inactive: -33.9%
3,COc1ccc(NC(=O)c2sc3ncnc(N4CCN(c5ccccn5)CC4)c3c2C)cc1Cl,inconclusive: -40.3%
4,CCN(CC(=O)Nc1cccc(S(=O)(=O)N(C)c2ccccc2)c1)Cc1cccs1,inconclusive: -44.5%
5,COc1ccc(NS(=O)(=O)c2cc(NC(=O)C3CC3)ccc2N2CCOCC2)cc1,inconclusive: -51.9%
6,CCOc1cc(/C=C/c2cccc[n+]2C)ccc1OCC(=O)Nc1ccc(C)cc1,active: -95.3%
7,CC(C)(C)c1ccc(-c2cc(NC(=O)Cc3c[nH]c4ccccc34)ccc2Nc2cccnc2)cc1,inactive: 56.7%
8,COC(=O)[C@@H]1[C@@H](CO)[C@@H]2Cn3c(cccc3=O)[C@@H]2N1C(=O)C1CCC1,inconclusive: -43.9%
9,NC(=O)C1CCN(CC(=O)Nc2ccccc2C(=O)NC2CC2)CC1,inactive: 50.2%
10,CC1(C2CCC3C4CCC5CC6(CCC5(C)C4C(=O)CC32C)OCCO6)OCCO1 (stereo not given),active: -99.1%
11,Cc1cccc(N2CCN(C(=O)C3CCCN(S(=O)(=O)c4ccc5c(c4)oc(=O)n5C)C3)CC2)c1C (stereo not given),inconclusive: -46.5%
12,Oc1ccccc1C=NNC(=S)NC1CC2C=CC1C2 (stereo not given),active: -70.6%
13,Cc1cccc(C(=O)Nc2ccc(-c3nc4ncccc4o3)cc2C)c1,inactive: 24.6%
14,CC1Cc2cc(S(=O)(=O)NCCc3ccc(Cl)cc3)ccc2N1C(=O)C1CCC1 (stereo not given),inactive: -6.37%
15,COc1ccccc1Cn1cc(C(=O)c2ccc(Cl)cc2)c(=O)c2ccccc21,active: -101%
16,O=c1cc(C(F)(F)F)[nH]c2ccc(C(F)(F)F)cc12,active: -97.4%
17,O=C(CCCN1C(=O)c2cccc3cccc(c23)C1=O)OCC(=O)N1CCCCC1,inconclusive: -47.8%
18,CCCCCN1C(=O)c2cc(OC)ccc2[C@@]2(C(=O)OCC)Cc3cc(Cl)ccc3[C@@H]12,active: -103%
19,CN(C)CCCNc1oc(-c2ccccc2Cl)nc1S(=O)(=O)c1ccc(F)cc1,inconclusive: -51.4%
20,NS(=O)(=O)c1ccc(NC(=O)c2ccc(-c3ccccc3)cc2)cc1,inconclusive: -56.3%
21,CCC(C(=O)OCC(=O)N1CCN(S(=O)(=O)c2ccc(C)cc2C)CC1)c1ccccc1 (stereo not given),inconclusive: -44.7%
22,COc1ccc(CNC(=O)C(C)Sc2nc(-c3ccccc3)cc(C(F)(F)F)n2)cc1 (stereo not given),inconclusive: -41.3%

row,SMILES,"activity change, negative = inhibition"
1,CC(Oc1ccc2c3c(c(=O)oc2c1)CCC3)C(=O)NCc1ccccn1 (stereo not given),inconclusive: 0%
2,CCCCn1c(SCC(=O)OCC)nc2c(sc(=S)n2-c2ccccc2OC)c1=O,inconclusive: -42.6%
3,CC(C)(C)OC(=O)/C=C/[C@@H]1Cc2cc(C(F)(F)F)ccc2N1,inactive: 14%
4,COc1ccc(OCC(=O)N2CCC(c3nc4ccccc4s3)CC2)cc1,inactive: -30.1%
5,CC1Nc2ccccc2C(=O)N1NS(C)(=O)=O (stereo not given),inconclusive: -48.4%
6,COc1ccccc1NC(=O)CSc1nc2ccccc2n1C(C)=O,inconclusive: -49.3%
7,Cc1cccc(-n2cc(-c3ccccc3)c3c(N4CCC(C)CC4)ncnc32)c1,inconclusive: -47.2%
8,CCn1c(/C=C/c2ccccc2Cl)nc2ccccc2c1=O,active: -78.9%
9,CSc1ccccc1NC(=O)Nc1ccc(Cl)cc1,inconclusive: -49.2%
10,C/C(=N\Nc1ccccc1C)c1cccnc1,inconclusive: -40.4%
11,COc1ccc(C(=O)Oc2ccc(C(C)=O)cc2)c(OC)c1,inconclusive: -50.3%
12,COc1ccc(NC(=O)Cc2ccc(Cl)cc2)cc1NC(=O)c1ccco1,active: -85.9%
13,Cc1ccc(S(=O)(=O)Nc2cc(=O)[nH]c(SCc3ccccc3Cl)n2)cc1,active: -66.4%
14,O=C([O-])c1ccccc1-[n+]1c(-c2ccccc2)cc(-c2ccccc2)cc1-c1ccccc1,inconclusive: -53.3%
15,COCCn1c(SCC(=O)Nc2ccccc2OC)nc2ccccc2c1=O,inactive: 20.4%
16,CCC(C)(C)n1nnnc1C(c1cccs1)N1CC=C(c2ccc(F)cc2)CC1 (stereo not given),active: -63.1%
17,O=C(CN1C(=O)S/C(=C\c2ccc(Cl)cc2)C1=O)NCCCn1ccnc1,inactive: -8.4%
18,O=C(Cn1c(=O)nc(-c2ccccc2)c2ccccc21)NCCc1ccc(Cl)cc1,inconclusive: -41%
19,Cc1ccc(C)c(NC(=O)Cn2nnc(C(=O)NCc3ccccc3Cl)c2N)c1,inconclusive: -50%
20,COc1cccc(C2NC(=O)c3n[nH]c(-c4cccs4)c32)c1 (stereo not given),inactive: 11.7%
21,COc1ccc(-c2cn(-c3ccc(Cl)cc3)c3[n+]2CCCCC3)cc1,active: -66%
22,COc1ccc(NC(=O)CCC(=O)Nc2nnc(C3CCCCC3)s2)c(OC)c1,inconclusive: -47.8%

row,SMILES,"activity change, negative = inhibition"
1,Cc1cccc(OCc2nnc(SCC(=O)N3CCCCC3)o2)c1,inconclusive: -53.7%
2,CC(=O)NCCn1c(SCc2cccc([N+](=O)[O-])c2)nc2ccccc2c1=O,inconclusive: -58.7%
3,O=C(CN(CCO)c1ccccc1)Nc1ccc(Cl)c(S(=O)(=O)N2CCOCC2)c1,inconclusive: -57.6%
4,COc1cc(/C=N/NC(=O)c2ccc(=O)[nH]n2)ccc1O,inconclusive: -55%
5,c1ccc(OCc2nn3c(Cn4cnc5ccccc54)nnc3s2)cc1,inconclusive: -53.7%
6,COc1ccc(N(CC(=O)N/N=C/c2ccc(-c3ccc([N+](=O)[O-])cc3)o2)S(=O)(=O)c2ccc(C)cc2)cc1,active: -68.2%
7,O=C(Cc1cccs1)Nc1cccc(-c2nc3ccccc3o2)c1,inconclusive: -51.7%
8,COc1cc2c(cc1OC)[C@H](Cc1ccc(O)cc1)NCC2,inconclusive: -53%
9,CC1Cc2cc(S(=O)(=O)CCC(=O)NCc3ccc(Cl)cc3)ccc2N1C(=O)C1CC1 (stereo not given),inactive: 4.59%
10,CC(=O)Nc1nc(-c2ccc3c(c2)CC(C)N3C(=O)C2CC2)c(C)s1 (stereo not given),active: -100%
11,Cc1ccc(C(=O)Nc2ccc(N3CCOCC3)cc2N2CCOCC2)cc1,inconclusive: -56.6%
12,COc1ccc(C)cc1NC(=O)c1ccc2c(=O)n3c(nc2c1)CCCCC3,inconclusive: -40.4% and inconclusive: -41.8%
13,Cc1csc(NC(=O)c2cc(C)oc2C)n1,inactive: 71.2%
14,CCC(C)(C)NC(=O)c1ccc2c(c1)N(CC(=O)NC1CCCC1)C(=O)C(C)(C)O2,inconclusive: -43.5%
15,Cc1cnccc1NC(=O)c1cccs1,active: -62.2%
16,CN(C)S(=O)(=O)N1CCC(Oc2ccc(C(=O)N3C[C@H]4CC[C@H]3C4)cc2)CC1,inconclusive: -56.7%
17,Cc1cc(NCc2ccccn2)n2ncc(-c3ccccc3)c2n1,active: -66.2%
18,COc1ccc2[nH]c(=O)c(CN(Cc3cccs3)S(=O)(=O)c3c(C)ccc4nsnc34)cc2c1,active: -103%
19,COc1ccc(OC)c(NCc2cccn2-c2nnc(N3CCCCC3)s2)c1,inconclusive: -53.1%
20,CCCn1c(CN2CCCCC2CC)nc2c1c(=O)n(C)c(=O)n2C (stereo not given),inactive: 51.5%
21,COC(=O)c1c(NC(=O)COc2ccc(Cl)cc2)sc2c1CC(C)(C)NC2(C)C,inactive: 24.3%
22,COCCCn1c(=O)c2sccc2n2c(CCCC(=O)Nc3cc(C)cc(C)c3)nnc12,inconclusive: -56.4%

row,SMILES,"activity change, negative = inhibition"
1,COC(=O)c1c(NC(=O)C(=O)N2CCOCC2)sc2c1CCCC2,inconclusive: -41.3%
2,CSc1ccc(NC(=O)N2CC(C)OC(C)C2)cc1 (stereo not given),inconclusive: -45.2%
3,Nc1cc(-c2ccccc2)nn1S(=O)(=O)c1ccc(F)cc1,inconclusive: -50%
4,O=C(Cc1ccc2c(c1)OCCO2)N1CCN(c2ccccc2)CC1,inactive: 98.9%
5,CCN(C(=O)CCS(=O)(=O)c1cc2[nH]c(=O)c(=O)[nH]c2cc1C)c1ccccc1,inactive: 0%
6,COc1ccc(-c2noc(N3CCC(C(=O)Nc4ccc(F)cc4Cl)CC3)n2)cc1,inconclusive: -48%
7,CCOc1cc(C(=S)N2CCCC2)ccc1O,inactive: -1.55%
8,Cc1cc(NC(=O)CCCN2C(=O)c3cccnc3C2=O)ccc1Br,inconclusive: -46.9%
9,CCOc1ccc(C(c2c(O)cc(C)n(CCOC)c2=O)N2CCN(c3ccccc3)CC2)cc1 (stereo not given),inactive: 1.03%
10,COc1ccc(C2CC2C(C)=O)cc1 (stereo not given),inactive: 61.2%
11,Cc1ccccc1C(=O)N1CCCC(CCC(=O)N2CCN(c3ccccn3)CC2)C1 (stereo not given),inconclusive: -46.9%
12,CN(C)c1ccc(O)c2c1CC1CC3[C@@H](N(C)C)C(=O)C(C(N)=O)=C(O)[C@]3(O)C(=O)C1=C2O (stereo not given in full),inconclusive: -54.8%
13,O=C(N/N=C/c1ccc2c(c1)OCO2)c1cc(-c2ccncc2)nc2ccccc12,inconclusive: -54.3%
14,O=C(c1ccc(Br)o1)N1CCN(c2ccc3nnc(-c4ccccc4)n3n2)CC1,active: -72.3%
15,O=C(O)c1cc2ncc(-c3[nH]ncc3[N+](=O)[O-])cn2n1,inactive: -17.6%
16,O=C(Nc1ccc(S(=O)(=O)Nc2ccccc2)cc1)C1COc2ccccc2O1 (stereo not given),inconclusive: -58.3%
17,O=C(CC1COc2ccccc2O1)Nc1ccccn1 (stereo not given),inconclusive: -48.3%
18,Cc1ccc(C2OCC3(CO2)COC(c2ccc(C)cc2)OC3)cc1 (stereo not given),inconclusive: -40.8%
19,O=C(N=Nc1c(O)[nH]c2ccc(F)cc12)C1COc2ccccc2O1 (stereo not given),inconclusive: -42.5%
